According to patent US10442837B2, “Scorpion venom heat-resistant synthetic peptide and applications thereof” (priority 2016, dated 2019):
Several values for one entry are separate records, joined by “and”; a condition that tells them apart may be missing. Equal values may be shown once. Entries after “also recorded” stand apart in the source; their conditions may differ. At least one peptide structure holds a part that was inferred or is arguable (an end, a ring closure or a residue). Peptide text beside a SMILES is read from it.

Experiments:
AD mice = assay: Morris water maze test, learning and memory of AD mice; assay type: in vivo
[1] = test system: sodium channel current of primary cultured hippocampal neurons; assay: Whole-cell patch-clamp recording of sodium current; assay type: cell-based, SD rat
[2] = test system: transgenic nematodes CL2355; assay: Nematode chemotaxis test (Aβ neurotoxicity); assay type: in vivo, Caenorhabditis elegans; details: for Nematode Chemotaxis Results, Average: N 3
OPC cells = assay: Dedifferentiation of OPC cells into neural stem cells in vitro; assay type: cell-based, SD rat
[3] = test system: lithium-pilocarpine epilepsy model rats; assay: Lithium-pilocarpine refractory epilepsy chronic model, episodes; assay type: in vivo, SD rats; details: for Total Episode Averages superimposed ± Standard Deviation: 50 ug/kg ip, n = 5
Method: (1) Selection and groups of animals that 180 g healthy male SD rats are selected. Lithium-pilocarpine ip (intraperitoneal administration) 300 mg/kg is used to induce temporal lobe epilepsy episodes. After 15 days of acute epilepsy episode, epilepsy rats are randomly divided into a model group and a model administration group. […] The levels of epilepsy are observed and recorded, and graded according to Racine as the evaluation criteria.

SH-SY5Y cells [4] = assay: SH-SY5Y oxidative stress (ROS) induced by 6-OHDA, DCFH-DA probe; assay type: cell-based, human
SH-SY5Y cells [5] = assay: NMDA-induced injury of SH-SY5Y cells, MTT; assay type: cell-based, human; details: 2 μg/ml, 20 μg/ml; NMDA 20 mM+Gly 10 μM; p<0.05 (n=3)
type II astrocytes = assay: Dedifferentiation of type II astrocytes into neural stem cells, Nestin staining; assay type: cell-based, SD rat
hippocampal slices = assay: Epileptiform discharges of hippocampal slices, patch clamp; assay type: cell-based; details: patch clamp technique

**Q.** How did the escape latency (AD mice; AD model administration group, fifth day, hidden platform) turn out when `CC(C)C[C@H](NC(=O)[C@@H](NC(=O)[C@@H](N)CCCCN)C(C)C)C(=O)N[C@@H](CC(N)=O)C(=O)NCC(=O)N1CCC[C@H]1C(=O)N[C@@H](CCC(=O)O)C(=O)N[C@@H](CCC(=O)O)C(=O)N[C@@H](CCC(=O)O)C(=O)N[C@@H](C)C(=O)N[C@@H](C)C(=O)N[C@@H](C)C(=O)N1CCC[C@H]1C(=O)N[C@@H](C)C(=O)N[C@@H](CCC(=O)O)C(=O)O` [SVHRSP] (H-KVLNGPEEEAAAPAE-OH) was run?
**A.** 12±2 times

**Q.** And the “times by means of (crossing) the platform” value (AD mice; administration group)?
**A.** 8 times

**Q.** And the swimming distance (AD mice; administration group, 5th day)?
**A.** 300 cm

**Q.** And the “effect on spatial learning and memory ability of AD mice” value (AD mice; mouse, in vivo)?
**A.** promotion effect

**Q.** What about the “effect on sodium channel current of primary cultured hippocampal neurons” value [1] of the same compound?
**A.** significantly inhibit the sodium channel current

**Q.** What about the “inhibition rate of sodium channel current” value ([1]; 2 μg/ml, N=6, p<0.0001) of the same compound?
**A.** over 90%

**Q.** And the “effect on chemotactic injury induced by Aβ expression” value ([2]; 40 μg/ml, CL2355)?
**A.** almost completely reverses the chemotactic injury induced by Aβ expression

**Q.** What about the “effect on chemotaxis index (CI) / chemotaxis behavior” value ([2]; CL2355) of the same compound?
**A.** improve the abnormal chemotaxis behavior induced by neuronal Aβ expression; also recorded: dose-dependently improve CI of CL2355

**Q.** And the “Nematode Chemotaxis Results, Average” value ([2]; SVHRSP 20 μg/ml)?
**A.** 39.45

**Q.** What about the “Nematode Chemotaxis Results, Average” value ([2]; SVHRSP 40 μg/ml) of the same compound?
**A.** 7±5.66 and 7

**Q.** And the “Nematode Chemotaxis Results, Average” value ([2]; SVHRSP 80 μg/ml)?
**A.** 10.30

**Q.** And the “dedifferentiation of OPC cells into neural stem cells” value (OPC cells)?
**A.** promotes OPC cells to be dedifferentiated into neural stem cells

**Q.** What about the “effect on episode level and number of episodes, chronic model” value ([3]; 50 μg/kg/d ip, 15 days) of the same compound?
**A.** number of episodes can be reduced significantly; also recorded: significantly reduce the number of episodes; also recorded: superior than the valproic acid group

**Q.** And the “Total Episode Averages superimposed ± Standard Deviation” value ([3]; First day)?
**A.** 0.8 ± 0.58

**Q.** What about the “Total Episode Averages superimposed ± Standard Deviation” value ([3]; First eight days) of the same compound?
**A.** 7.6 ± 0.87

**Q.** What about the “Total Episode Averages superimposed ± Standard Deviation” value ([3]; First eleven days) of the same compound?
**A.** 11.8 ± 1.2

**Q.** And the “Total Episode Averages superimposed ± Standard Deviation” value ([3]; First fifteen days)?
**A.** 16.6 ± 1.51

**Q.** And the “Total Episode Averages superimposed ± Standard Deviation” value ([3]; First five days)?
**A.** 1.8 ± 0.86

**Q.** What about the “Total Episode Averages superimposed ± Standard Deviation” value ([3]; First four days) of the same compound?
**A.** 1.4 ± 0.68

**Q.** What about the “Total Episode Averages superimposed ± Standard Deviation” value ([3]; First fourteen days) of the same compound?
**A.** 15.8 ± 1.50

**Q.** And the “Total Episode Averages superimposed ± Standard Deviation” value ([3]; First nine days)?
**A.** 9.4 ± 0.97

**Q.** What about the “Total Episode Averages superimposed ± Standard Deviation” value ([3]; First seven days) of the same compound?
**A.** 5.8 ± 0.8

**Q.** And the “Total Episode Averages superimposed ± Standard Deviation” value ([3]; First six days)?
**A.** 3.8 ± 0.734

**Q.** And the “Total Episode Averages superimposed ± Standard Deviation” value ([3]; First ten days)?
**A.** 11 ± 1.38

**Q.** And the “Total Episode Averages superimposed ± Standard Deviation” value ([3]; First thirteen days)?
**A.** 14.6 ± 1.21

**Q.** What about the “Total Episode Averages superimposed ± Standard Deviation” value ([3]; First three days) of the same compound?
**A.** 1 ± 0.774

**Q.** What about the “Total Episode Averages superimposed ± Standard Deviation” value ([3]; First twelve days) of the same compound?
**A.** 13 ± 1.14

**Q.** What about the “Total Episode Averages superimposed ± Standard Deviation” value ([3]; First two days) of the same compound?
**A.** 1 ± 0.77

**Q.** And the “removal of intracellular ROS” value (SH-SY5Y cells [4]; 6-OHDA induced SH-SY5Y cells)?
**A.** significantly remove intracellular ROS

**Q.** What about the “ROS in the cells (fluorescence, control 1±0.2, 6-OHDA 3.4±0.4)” value (SH-SY5Y cells [4]; SVHRSP 20 μg/ml pre-treated 1 h, 6-OHDA 100 μM 24 h) of the same compound?
**A.** 1.5±0.4

**Q.** What about the “effect on NMDA-induced injury (cell livability, MTT)” value (SH-SY5Y cells [5]) of the same compound?
**A.** protective effect; also recorded: protection effect

**Q.** What about the Nestin protein expression (type II astrocytes; de-differentiated culture cells) of the same compound?
**A.** up-regulates

**Q.** And the “reprogramming (dedifferentiation) of type II astrocytes into neural stem cells” value (type II astrocytes; in vitro)?
**A.** promote the reprogramming (dedifferentiation) of type II astrocytes into intracerebral endogenous neural stem cells; also recorded: promotes reprogramming (dedifferentiation) of type II astrocyte into neural stem cells

**Q.** And the “epileptiform discharges of hippocampal slices” value (hippocampal slices)?
**A.** inhibits
